Source: article doi:10.1101/2020.02.12.945634
These are yes or no findings as the source states them, for the method shown. Binding seen in cells or lysates may run through a third protein. Some results given as binding are weak or reduced against the parent protein; the word gives no strength.

The chains behind the UniProt entries cited, without tags or fusion partners. Where a name states a change or a piece, a line headed by the entry shows the natural chain unless it says otherwise. A line that says so, or that is headed by a name, gives the form on record, which may keep a tag or linker. Residues count along the entry.
UniProt P01108: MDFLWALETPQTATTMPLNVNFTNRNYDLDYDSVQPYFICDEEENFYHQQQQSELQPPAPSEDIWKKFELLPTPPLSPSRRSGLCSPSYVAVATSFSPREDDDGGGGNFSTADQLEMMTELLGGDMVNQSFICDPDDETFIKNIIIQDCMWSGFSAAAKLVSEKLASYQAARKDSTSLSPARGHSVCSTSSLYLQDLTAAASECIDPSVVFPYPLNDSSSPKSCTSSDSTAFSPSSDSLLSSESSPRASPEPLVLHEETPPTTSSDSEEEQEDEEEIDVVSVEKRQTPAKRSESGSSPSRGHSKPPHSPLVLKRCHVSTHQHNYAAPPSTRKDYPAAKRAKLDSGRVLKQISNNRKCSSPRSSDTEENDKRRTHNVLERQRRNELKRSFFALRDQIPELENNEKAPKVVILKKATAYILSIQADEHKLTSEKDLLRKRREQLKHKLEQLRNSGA
mouse MYC tagged C-terminally with V5 (mMYC-V5), wild type: residues 16-454 of P01108
eGFP fused C-terminally with the native mMYC PEST domain (aa 202-268): residues 217-283 of P01108

Key:
[1] = target: eGFP fused C-terminally with the native mMYC PEST domain (aa 202-268) (mouse) (UniProt P01108); assay: co-IP
[2] = target: mouse MYC tagged C-terminally with V5 (mMYC-V5), wild type (mouse) (UniProt P01108); assay: co-IP

c-Myc epitope-tagged FBW7α (from UniProt Q969H0-1 1-707)
binding [1]: binds | binding [2]: binds
